PubChem BioAssay AID504793 | Drosophila RNAi Screening Center – 2011

Screen: 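Whole-genome screen for parts of the DNA damage checkpoint at G2/M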 (primary screen)
Cells: Drosophila S2R+ cells
Reagent: long dsRNA against Drosophila genes, about 0.25 µg dsRNA per well
Timing: 4 days of dsRNA, then 4 hours of drug before read-out
Challenge: doxorubicin 0.5 µM for 4 hours to cause double-strand breaks, in cells also given a low, harmless dose of dsRNA against nbs to sensitise the assay
Measurement: 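Per-well count of mitotic cells stained for phospho-histone H3 after doxorubicin exposure, used as mitotic index; counts are raw and not normalised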
Scale: mitotic cells: higher = more cells in mitosis, weaker G2 arrest
Active means: 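a call needs confirmation in secondary tests, with other dsRNAs and a check of mitotic timing without damage, not just a high primary count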
Calls: active = confirmed in follow-up tests; inactive = not confirmed
The deposit covers about 23,000 reagents; this is an unselected part of those that have a named target and a result. Of all reagents, 62 (0.27%) got an active call. 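Calls come from follow-up tests whose scores are not deposited, so confirmed genes may have low counts here; counts are not normalised per plate.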 Raw values vary from plate to plate and are shown uncorrected. A number with no mark means an inactive call. Reagent sequences are not shown.

What is on record for e [DRSC16936]?
mitotic cells, replicate 1: 15

For e [DRSC24320], how do the results read?
mitotic cells, replicate 1: 5

What did the screen give for FucTD [DRSC08634]?
mitotic cells, replicate 1: 6

For Gdap1 [DRSC10437], how do the results read?
mitotic cells, replicate 1: 8

For Gdap1 [DRSC28286], how do the results read?
mitotic cells, replicate 1: 3

For stwl [DRSC11400], how do the results read?
mitotic cells, replicate 1: 14

Which result is listed for stwl [DRSC23913]?
mitotic cells, replicate 1: 12

With PPO1 [DRSC05929], what was measured?
mitotic cells, replicate 1: 4

With CG15109 [DRSC06536], what was measured?
mitotic cells, replicate 1: 3

How did the screen score CG15109 [DRSC26040]?
mitotic cells, replicate 1: 7

What did the screen give for Dyb [DRSC07208]?
mitotic cells, replicate 1: 13

For Dyb [DRSC22862], what was measured?
mitotic cells, replicate 1: 11

With Dyb [DRSC29699], what does the deposit list?
mitotic cells, replicate 1: 5

With CG31638 [DRSC02269], what was measured?
mitotic cells, replicate 1: 7

For CG31638 [DRSC03259], what was measured?
mitotic cells, replicate 1: 1

With CG31638 [DRSC25082], how do the results read?
mitotic cells, replicate 1: 5

No new results follow: 5 of the entries above.
Gdap1 [DRSC10437] → mitotic cells, replicate 1 = 8
Gdap1 [DRSC28286] → mitotic cells, replicate 1 = 3
stwl [DRSC11400] → mitotic cells, replicate 1 = 14
stwl [DRSC23913] → mitotic cells, replicate 1 = 12
PPO1 [DRSC05929] → mitotic cells, replicate 1 = 4

Additional records follow.
How did the screen score CG15653 [DRSC04244]?
mitotic cells, replicate 1: 3

With CG1239 [DRSC12204], what does the deposit list?
mitotic cells, replicate 1: 4

With CG1239 [DRSC27944], what was measured?
mitotic cells, replicate 1: 1

With CG1690 [DRSC06636], how do the results read?
mitotic cells, replicate 1: 6

What is on record for CG15480 [DRSC02490]?
mitotic cells, replicate 1: 2

For CG15480 [DRSC24919], how do the results read?
mitotic cells, replicate 1: 6

Which result is listed for CG6409 [DRSC10630]?
mitotic cells, replicate 1: 11

Which result is listed for CG6409 [DRSC22330]?
mitotic cells, replicate 1: 16

With CG6409 [DRSC27637], what was measured?
mitotic cells, replicate 1: 7

With CG5327 [DRSC06930], what does the deposit list?
mitotic cells, replicate 1: 5

Which result is listed for Ubc10 [DRSC07568]?
mitotic cells, replicate 1: 8

For Ubc10 [DRSC23795], what was measured?
mitotic cells, replicate 1: 4

What did the screen give for CG5381 [DRSC02852]?
mitotic cells, replicate 1: 4

What did the screen give for Miga [DRSC17821]?
mitotic cells, replicate 1: 21

Which result is listed for CG18223 [DRSC10306]?
mitotic cells, replicate 1: 2

What is on record for CG30338 [DRSC05166]?
mitotic cells, replicate 1: 3

For CG31913 [DRSC00892], what was measured?
mitotic cells, replicate 1: 1

For CG31913 [DRSC27532], what does the deposit list?
mitotic cells, replicate 1: 5

For CG9107 [DRSC03138], what does the deposit list?
mitotic cells, replicate 1: 7

What did the screen give for CG7016 [DRSC16174]?
mitotic cells, replicate 1: 11

How did the screen score sphinx1 [DRSC10993]?
mitotic cells, replicate 1: 3

With sphinx1 [DRSC24818], how do the results read?
mitotic cells, replicate 1: 15

How did the screen score Acp32CD [DRSC01858]?
mitotic cells, replicate 1: 4

What did the screen give for Acp32CD [DRSC23817]?
mitotic cells, replicate 1: 5

How did the screen score CG7295 [DRSC00699]?
mitotic cells, replicate 1: 4

With dap [DRSC07601], what does the deposit list?
mitotic cells, replicate 1: 6

How did the screen score stw [DRSC04842]?
mitotic cells, replicate 1: 4

What is on record for stw [DRSC04843]?
mitotic cells, replicate 1: 9

What is on record for stw [DRSC22527]?
mitotic cells, replicate 1: 5

How did the screen score stw [DRSC26018]?
mitotic cells, replicate 1: 2
